Results are given in words; binding and its absence hold for the method and conditions named. Binding seen in cells or lysates may run through a third protein. Some results given as binding are weak or reduced against the parent protein; the word gives no strength.
Molecular target: Endogenous DTX3L of mouse peritoneal macrophages (mouse (endogenous in primary peritoneal macrophages)) (UniProt Q3UIR3)
Experiment: co-IP

Amino acid sequences for entries named in this document (tags omitted).
UniProt Q3UIR3: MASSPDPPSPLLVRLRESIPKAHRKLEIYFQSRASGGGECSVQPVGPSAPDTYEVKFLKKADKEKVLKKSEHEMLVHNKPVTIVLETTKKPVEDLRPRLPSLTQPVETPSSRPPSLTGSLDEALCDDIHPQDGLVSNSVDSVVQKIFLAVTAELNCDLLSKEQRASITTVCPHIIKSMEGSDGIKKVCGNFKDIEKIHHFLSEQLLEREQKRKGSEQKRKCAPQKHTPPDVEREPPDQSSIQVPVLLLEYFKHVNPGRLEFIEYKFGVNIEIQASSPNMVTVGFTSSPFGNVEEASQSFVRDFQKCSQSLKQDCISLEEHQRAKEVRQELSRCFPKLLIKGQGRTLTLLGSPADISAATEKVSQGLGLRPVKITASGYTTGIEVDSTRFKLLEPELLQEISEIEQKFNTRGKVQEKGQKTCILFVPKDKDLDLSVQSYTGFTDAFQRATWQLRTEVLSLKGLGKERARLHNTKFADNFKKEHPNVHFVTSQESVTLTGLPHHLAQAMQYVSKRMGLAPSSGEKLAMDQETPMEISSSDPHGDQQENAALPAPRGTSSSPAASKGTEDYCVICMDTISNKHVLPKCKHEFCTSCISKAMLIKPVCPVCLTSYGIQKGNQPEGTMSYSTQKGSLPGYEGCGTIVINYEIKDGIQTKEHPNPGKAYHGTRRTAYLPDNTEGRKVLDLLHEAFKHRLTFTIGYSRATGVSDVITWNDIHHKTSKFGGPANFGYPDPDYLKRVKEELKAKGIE

B1: Endogenous FPN1 (ferroportin) of mouse peritoneal macrophages (protein, UniProt Q9JHI9 1-570)
chain: MTKARDQTHQEGCCGSLANYLTSAKFLLYLGHSLSTWGDRMWHFAVSVFLVELYGNSLLLTAVYGLVVAGSVLVLGAIIGDWVDKNARLKVAQTSLVVQNVSVILCGIILMMVFLHKNELLTMYHGWVLTVCYILIITIANIANLASTATAITIQRDWIVVVAGENRSRLADMNATIRRIDQLTNILAPMAVGQIMTFGSPVIGCGFISGWNLVSMCVEYFLLWKVYQKTPALAVKAALKVEESELKQLTSPKDTEPKPLEGTHLMGEKDSNIRELECEQEPTCASQMAEPFRTFRDGWVSYYNQPVFLAGMGLAFLYMTVLGFDCITTGYAYTQGLSGSILSILMGASAITGIMGTVAFTWLRRKCGLVRTGLFSGLAQLSCLILCVISVFMPGSPLDLSVSPFEDIRSRFVNVEPVSPTTKIPETVFTTEMHMSNMSNVHEMSTKPIPIVSVSLLFAGVIAARIGLWSFDLTVTQLLQENVIESERGIINGVQNSMNYLLDLLHFIMVILAPNPEAFGLLVLISVSFVAMGHLMYFRFAQKTLGNQIFVCGPDEKEVTDENQPNTSVV
In the case of B1, the binding is reported as “binds”.

From article PMC12216596
